Experimental data: PubChem BioAssay AID1159578 (Peter MacCallum Cancer Centre, 2015)
The whole screen tested about 18,000 reagents; shown is an unselected part. About 1,030 of all reagents (5.7%) count as active. 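Inactive calls also include pools with fewer than 3300 nuclei, whose migration was not assessed.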 Raw values are not corrected between plates. A number with no mark means an inactive call. Not all columns of the deposit are shown.

Assay: 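siRNA pools altering how lymphatic endothelial cells close a scratch wound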 (primary screen)
System: human lymphatic endothelial cells
Knock-down reagent: siRNA pool against human genes, 40 nM
Duration: 48 h after transfection
Detection: 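High-content imaging of dye-stained cells in a scratch assay measures filled wound area and nuclei per well; duplicate means given as ratio to mock and robust z-score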
Scale: migration robust z-score: higher = faster migration into the scratch; nuclei per well: higher = more cells in the well
Rule for the call: 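Pools averaging fewer than 3300 nuclei are never called; remaining pools count as changed when migration robust z lies outside -2 to 2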
Calls: active = migration changed; inactive = no migration change, or too few cells

SYNJ1 (GeneID 8867)
- migration robust z-score: -0.88
- nuclei per well, duplicate mean: 4208

UTP23 (GeneID 84294)
- migration robust z-score: 0.2
- nuclei per well, duplicate mean: 7804

COLCA1 (GeneID 399948)
- migration robust z-score: -1.25
- nuclei per well, duplicate mean: 5388

ARFRP1 (GeneID 10139)
- migration robust z-score: -0.83
- nuclei per well, duplicate mean: 5794

H4C15 (GeneID 554313)
- migration robust z-score: 2.21 (active)
- nuclei per well, duplicate mean: 6634

PARS2 (GeneID 25973)
- migration robust z-score: 0.21
- nuclei per well, duplicate mean: 7252

PFDN1 (GeneID 5201)
- migration robust z-score: -1.85
- nuclei per well, duplicate mean: 3219

PCOTH (GeneID 542767)
- migration robust z-score: 0.62
- nuclei per well, duplicate mean: 5610

MAGI2 (GeneID 9863)
- migration robust z-score: 0.65
- nuclei per well, duplicate mean: 5403

TSBP1 (GeneID 10665)
- migration robust z-score: -0.57
- nuclei per well, duplicate mean: 4816

CCDC70 (GeneID 83446)
- migration robust z-score: -2.21 (active)
- nuclei per well, duplicate mean: 4826

XPO4 (GeneID 64328)
- migration robust z-score: -0.08
- nuclei per well, duplicate mean: 4818

RAPH1 (GeneID 65059)
- migration robust z-score: 2.08 (active)
- nuclei per well, duplicate mean: 5752

METTL13 (GeneID 51603)
- migration robust z-score: 0.72
- nuclei per well, duplicate mean: 4781

STRIP2 (GeneID 57464)
- migration robust z-score: -1.72
- nuclei per well, duplicate mean: 5355

RD3 (GeneID 343035)
- migration robust z-score: -0.07
- nuclei per well, duplicate mean: 4516

CDIPT (GeneID 10423)
- migration robust z-score: 0.34
- nuclei per well, duplicate mean: 6267

CLIC4 (GeneID 25932)
- migration robust z-score: -2.69 (active)
- nuclei per well, duplicate mean: 3382

ABRAXAS2 (GeneID 23172)
- migration robust z-score: 0.4
- nuclei per well, duplicate mean: 7192

METTL25B (GeneID 51093)
- migration robust z-score: 1.39
- nuclei per well, duplicate mean: 6122

MIEN1 (GeneID 84299)
- migration robust z-score: -1.18
- nuclei per well, duplicate mean: 3716

CRAT (GeneID 1384)
- migration robust z-score: 0.32
- nuclei per well, duplicate mean: 3824

DNAJC7 (GeneID 7266)
- migration robust z-score: -0.7
- nuclei per well, duplicate mean: 5040

CMBL (GeneID 134147)
- migration robust z-score: 0.52
- nuclei per well, duplicate mean: 5237

CPN1 (GeneID 1369)
- migration robust z-score: 0.96
- nuclei per well, duplicate mean: 7280

EXTL3 (GeneID 2137)
- migration robust z-score: -0.36
- nuclei per well, duplicate mean: 6318

VTI1B (GeneID 10490)
- migration robust z-score: 0.98
- nuclei per well, duplicate mean: 6850

Part of the list above, reformatted:
Target gene,migration robust z-score,"nuclei per well, duplicate mean"
RAPH1 (GeneID 65059),2.08 (active),5752
METTL13 (GeneID 51603),0.72,4781
